The values below come from article PMC3422304.

Assay [1] deals with T1, Din1-myc (Schizosaccharomyces pombe) (UniProt O13836).
T1 sequence: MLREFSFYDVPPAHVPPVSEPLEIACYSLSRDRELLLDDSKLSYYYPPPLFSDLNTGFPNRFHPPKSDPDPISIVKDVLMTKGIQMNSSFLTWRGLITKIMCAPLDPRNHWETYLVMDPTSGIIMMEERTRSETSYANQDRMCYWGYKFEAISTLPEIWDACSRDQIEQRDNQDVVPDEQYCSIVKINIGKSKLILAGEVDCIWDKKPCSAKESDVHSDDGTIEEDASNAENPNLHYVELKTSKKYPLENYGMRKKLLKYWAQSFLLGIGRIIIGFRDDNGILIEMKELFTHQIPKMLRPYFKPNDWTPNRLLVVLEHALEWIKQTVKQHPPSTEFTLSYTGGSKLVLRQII
Kind of assay: co-IP; total cell lysates of S. pombe strains expressing Rhn1-PK alone or with Dhp1-myc, Din1-myc or Pcf11-myc; immunoprecipitation with anti-myc; immunoprecipitates and inputs analysed on Western blots.

The target of assay [2] is T2, Dhp1-myc (Schizosaccharomyces pombe) (UniProt P40848).
T2 sequence: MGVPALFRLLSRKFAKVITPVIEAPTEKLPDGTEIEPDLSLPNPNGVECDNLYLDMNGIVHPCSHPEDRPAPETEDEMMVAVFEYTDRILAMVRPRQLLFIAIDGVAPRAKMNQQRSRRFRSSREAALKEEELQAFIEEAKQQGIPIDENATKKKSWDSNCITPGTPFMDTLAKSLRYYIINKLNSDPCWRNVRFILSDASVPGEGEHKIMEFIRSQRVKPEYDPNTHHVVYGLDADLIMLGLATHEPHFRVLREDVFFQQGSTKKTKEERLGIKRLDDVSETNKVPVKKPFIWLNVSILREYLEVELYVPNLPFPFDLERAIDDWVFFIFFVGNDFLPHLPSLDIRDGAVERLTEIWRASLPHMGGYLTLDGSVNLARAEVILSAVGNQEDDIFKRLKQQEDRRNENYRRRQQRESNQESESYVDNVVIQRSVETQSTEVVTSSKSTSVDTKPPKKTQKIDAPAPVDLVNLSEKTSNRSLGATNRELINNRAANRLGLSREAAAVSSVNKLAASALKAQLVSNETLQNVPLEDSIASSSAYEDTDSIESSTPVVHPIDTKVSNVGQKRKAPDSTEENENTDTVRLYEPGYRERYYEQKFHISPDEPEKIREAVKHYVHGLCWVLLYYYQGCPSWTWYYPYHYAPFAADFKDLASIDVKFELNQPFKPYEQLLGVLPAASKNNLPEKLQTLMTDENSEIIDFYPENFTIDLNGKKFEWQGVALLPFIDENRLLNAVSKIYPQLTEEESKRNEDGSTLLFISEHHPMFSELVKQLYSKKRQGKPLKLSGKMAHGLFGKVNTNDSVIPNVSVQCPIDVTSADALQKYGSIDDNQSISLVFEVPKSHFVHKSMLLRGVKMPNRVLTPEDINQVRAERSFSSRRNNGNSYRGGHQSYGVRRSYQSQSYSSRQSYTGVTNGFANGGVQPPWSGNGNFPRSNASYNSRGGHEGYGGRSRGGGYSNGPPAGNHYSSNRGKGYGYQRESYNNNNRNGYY
Described as above.

These are yes or no findings as the source states them, for the method shown. In cells and extracts the contact can be indirect. Sequences can lack the tags named with a protein.

B1: Rhn1-PK (protein, UniProt O74814 1-387)
chain: MALTPDTVSSKLATLNETQESITGIAHWVMFHKRYADEIVQIWLEALYESSSNKKLLLLYLLNEVVQQSRVKKISEYIDAVSPYVVNSVADAYASVPASIKTKIKYVFDVWCQRGIFSKEILLSLQERFNNAENSGHSNYYPVGPPEWAPYTRLMTQTSLYAKSAHSTKTVVDALYKSYLEKQSDYSELLDNYKKQLNKASESCKGNYQACIESRSTLITSLESLIEEQKKLLSEEEESLKSVESIISNLENKESTTATSTLTDAGFGDKSSTAGKHNVETTSPPSSSPNSDDAYSPQVDSYSPSINSVPYTSNIVENPSEDNLSPLPPPASGPYSQEEEETSLFKSQRKEENEEESKELPEDSDIYGKDSSPSSDDSSAAGLYGDS
As to B1, the binding result in assay [1] and in assay [2] was “no binding” in each case.
